# Reference: the supplement of paper PMC10849652
# By UniProt entry, the sequences of proteins in these tests, tags left out. Where a name states a change or a piece, a line headed by the entry shows the natural chain unless it says otherwise.
# UniProt P63010: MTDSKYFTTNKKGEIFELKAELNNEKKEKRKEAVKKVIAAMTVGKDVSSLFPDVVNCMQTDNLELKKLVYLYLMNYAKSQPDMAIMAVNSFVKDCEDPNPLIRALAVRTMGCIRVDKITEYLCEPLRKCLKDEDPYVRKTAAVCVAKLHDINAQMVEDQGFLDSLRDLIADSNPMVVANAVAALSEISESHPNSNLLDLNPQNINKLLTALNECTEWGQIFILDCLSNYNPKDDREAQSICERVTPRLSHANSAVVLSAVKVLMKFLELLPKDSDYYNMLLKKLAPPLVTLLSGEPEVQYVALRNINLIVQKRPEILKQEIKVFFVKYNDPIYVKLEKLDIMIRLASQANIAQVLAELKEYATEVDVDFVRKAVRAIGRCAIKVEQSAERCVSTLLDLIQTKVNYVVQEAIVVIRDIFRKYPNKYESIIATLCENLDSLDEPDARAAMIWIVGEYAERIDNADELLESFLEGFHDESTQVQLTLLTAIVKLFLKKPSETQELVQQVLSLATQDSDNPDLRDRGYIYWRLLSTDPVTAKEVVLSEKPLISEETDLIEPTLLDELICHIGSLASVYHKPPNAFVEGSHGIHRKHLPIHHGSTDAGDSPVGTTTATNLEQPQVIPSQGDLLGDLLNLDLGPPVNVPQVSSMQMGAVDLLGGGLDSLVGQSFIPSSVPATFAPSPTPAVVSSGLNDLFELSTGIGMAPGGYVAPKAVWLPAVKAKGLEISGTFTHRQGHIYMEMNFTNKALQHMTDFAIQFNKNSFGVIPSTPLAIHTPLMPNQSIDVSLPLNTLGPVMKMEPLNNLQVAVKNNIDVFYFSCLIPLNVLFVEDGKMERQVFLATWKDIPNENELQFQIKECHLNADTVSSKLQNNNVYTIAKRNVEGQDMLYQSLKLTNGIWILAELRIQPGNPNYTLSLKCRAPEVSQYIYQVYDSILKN
# UniProt Q96BI3, whole entry, looked up: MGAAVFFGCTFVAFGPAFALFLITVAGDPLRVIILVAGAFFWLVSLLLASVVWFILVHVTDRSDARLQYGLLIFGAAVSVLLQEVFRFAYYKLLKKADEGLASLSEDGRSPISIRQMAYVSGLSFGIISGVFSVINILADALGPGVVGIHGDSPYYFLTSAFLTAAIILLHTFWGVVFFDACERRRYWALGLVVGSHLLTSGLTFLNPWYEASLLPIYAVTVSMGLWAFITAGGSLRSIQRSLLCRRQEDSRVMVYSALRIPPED
# UniProt P02656: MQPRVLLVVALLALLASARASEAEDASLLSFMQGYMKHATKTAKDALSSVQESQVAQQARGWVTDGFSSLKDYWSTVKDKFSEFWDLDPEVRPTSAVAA
# UniProt Q9HC16: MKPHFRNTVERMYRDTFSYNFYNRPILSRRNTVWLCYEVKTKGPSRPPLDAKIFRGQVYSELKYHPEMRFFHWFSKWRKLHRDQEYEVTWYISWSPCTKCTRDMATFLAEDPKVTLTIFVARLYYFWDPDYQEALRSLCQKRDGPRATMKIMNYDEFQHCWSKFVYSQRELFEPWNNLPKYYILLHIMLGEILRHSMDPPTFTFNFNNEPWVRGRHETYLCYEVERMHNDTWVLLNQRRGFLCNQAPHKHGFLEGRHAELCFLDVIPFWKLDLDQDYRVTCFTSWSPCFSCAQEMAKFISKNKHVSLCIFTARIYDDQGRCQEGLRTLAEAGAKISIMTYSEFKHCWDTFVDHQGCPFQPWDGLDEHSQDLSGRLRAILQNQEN
# UniProt O14727: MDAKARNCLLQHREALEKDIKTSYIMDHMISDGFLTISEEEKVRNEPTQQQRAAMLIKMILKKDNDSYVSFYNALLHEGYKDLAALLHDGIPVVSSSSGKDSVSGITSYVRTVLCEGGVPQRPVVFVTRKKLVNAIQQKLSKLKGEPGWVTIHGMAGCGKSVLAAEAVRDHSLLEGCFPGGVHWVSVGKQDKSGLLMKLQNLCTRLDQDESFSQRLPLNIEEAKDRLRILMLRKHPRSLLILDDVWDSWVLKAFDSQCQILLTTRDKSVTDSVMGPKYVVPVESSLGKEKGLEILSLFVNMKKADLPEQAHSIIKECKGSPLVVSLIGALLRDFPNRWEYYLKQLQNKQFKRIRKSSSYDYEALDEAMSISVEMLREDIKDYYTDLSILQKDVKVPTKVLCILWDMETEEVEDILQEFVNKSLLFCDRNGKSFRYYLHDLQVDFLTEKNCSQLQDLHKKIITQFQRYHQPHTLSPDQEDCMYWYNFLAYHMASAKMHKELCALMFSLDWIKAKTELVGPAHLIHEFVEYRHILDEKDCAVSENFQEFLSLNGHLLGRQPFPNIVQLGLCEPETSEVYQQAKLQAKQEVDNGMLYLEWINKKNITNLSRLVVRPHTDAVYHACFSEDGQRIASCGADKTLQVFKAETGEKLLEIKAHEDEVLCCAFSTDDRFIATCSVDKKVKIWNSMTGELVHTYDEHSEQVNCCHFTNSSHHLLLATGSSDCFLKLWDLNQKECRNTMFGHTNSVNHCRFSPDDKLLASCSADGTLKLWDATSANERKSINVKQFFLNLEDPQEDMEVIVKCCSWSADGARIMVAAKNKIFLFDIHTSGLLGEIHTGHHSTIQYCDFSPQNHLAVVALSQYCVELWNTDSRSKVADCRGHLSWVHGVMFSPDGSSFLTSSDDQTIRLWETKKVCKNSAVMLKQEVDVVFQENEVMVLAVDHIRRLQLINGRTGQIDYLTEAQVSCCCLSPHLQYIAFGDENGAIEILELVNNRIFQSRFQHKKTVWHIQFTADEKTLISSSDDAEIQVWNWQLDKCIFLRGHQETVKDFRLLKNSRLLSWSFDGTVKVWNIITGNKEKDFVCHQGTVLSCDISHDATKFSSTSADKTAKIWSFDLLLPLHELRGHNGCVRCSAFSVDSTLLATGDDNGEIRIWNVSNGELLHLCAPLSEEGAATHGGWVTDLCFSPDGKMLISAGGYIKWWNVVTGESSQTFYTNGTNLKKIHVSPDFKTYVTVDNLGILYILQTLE
# UniProt Q9Y587: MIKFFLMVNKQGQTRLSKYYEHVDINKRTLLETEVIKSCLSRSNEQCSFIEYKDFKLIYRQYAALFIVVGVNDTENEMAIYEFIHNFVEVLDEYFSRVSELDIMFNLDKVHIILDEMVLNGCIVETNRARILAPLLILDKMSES
# UniProt P10398: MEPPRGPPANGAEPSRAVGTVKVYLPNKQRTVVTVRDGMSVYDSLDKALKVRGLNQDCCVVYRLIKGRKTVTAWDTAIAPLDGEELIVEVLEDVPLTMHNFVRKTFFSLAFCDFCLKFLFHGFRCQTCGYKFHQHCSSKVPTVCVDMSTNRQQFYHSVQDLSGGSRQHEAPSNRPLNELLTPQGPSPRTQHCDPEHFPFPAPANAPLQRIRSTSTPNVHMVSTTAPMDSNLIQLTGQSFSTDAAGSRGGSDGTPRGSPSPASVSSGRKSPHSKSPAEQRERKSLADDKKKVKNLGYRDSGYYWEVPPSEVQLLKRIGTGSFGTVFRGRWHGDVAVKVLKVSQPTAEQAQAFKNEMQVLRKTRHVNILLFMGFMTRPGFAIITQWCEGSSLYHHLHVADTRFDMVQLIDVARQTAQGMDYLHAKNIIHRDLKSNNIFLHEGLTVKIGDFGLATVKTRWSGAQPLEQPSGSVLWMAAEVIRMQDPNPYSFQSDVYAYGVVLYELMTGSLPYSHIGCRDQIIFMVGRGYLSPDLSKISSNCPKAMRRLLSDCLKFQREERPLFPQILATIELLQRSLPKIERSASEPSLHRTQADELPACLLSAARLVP
# UniProt P53680: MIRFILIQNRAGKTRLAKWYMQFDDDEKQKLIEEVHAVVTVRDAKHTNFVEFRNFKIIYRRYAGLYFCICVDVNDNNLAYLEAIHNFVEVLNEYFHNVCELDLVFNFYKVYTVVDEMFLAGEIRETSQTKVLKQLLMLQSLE
# UniProt P15144: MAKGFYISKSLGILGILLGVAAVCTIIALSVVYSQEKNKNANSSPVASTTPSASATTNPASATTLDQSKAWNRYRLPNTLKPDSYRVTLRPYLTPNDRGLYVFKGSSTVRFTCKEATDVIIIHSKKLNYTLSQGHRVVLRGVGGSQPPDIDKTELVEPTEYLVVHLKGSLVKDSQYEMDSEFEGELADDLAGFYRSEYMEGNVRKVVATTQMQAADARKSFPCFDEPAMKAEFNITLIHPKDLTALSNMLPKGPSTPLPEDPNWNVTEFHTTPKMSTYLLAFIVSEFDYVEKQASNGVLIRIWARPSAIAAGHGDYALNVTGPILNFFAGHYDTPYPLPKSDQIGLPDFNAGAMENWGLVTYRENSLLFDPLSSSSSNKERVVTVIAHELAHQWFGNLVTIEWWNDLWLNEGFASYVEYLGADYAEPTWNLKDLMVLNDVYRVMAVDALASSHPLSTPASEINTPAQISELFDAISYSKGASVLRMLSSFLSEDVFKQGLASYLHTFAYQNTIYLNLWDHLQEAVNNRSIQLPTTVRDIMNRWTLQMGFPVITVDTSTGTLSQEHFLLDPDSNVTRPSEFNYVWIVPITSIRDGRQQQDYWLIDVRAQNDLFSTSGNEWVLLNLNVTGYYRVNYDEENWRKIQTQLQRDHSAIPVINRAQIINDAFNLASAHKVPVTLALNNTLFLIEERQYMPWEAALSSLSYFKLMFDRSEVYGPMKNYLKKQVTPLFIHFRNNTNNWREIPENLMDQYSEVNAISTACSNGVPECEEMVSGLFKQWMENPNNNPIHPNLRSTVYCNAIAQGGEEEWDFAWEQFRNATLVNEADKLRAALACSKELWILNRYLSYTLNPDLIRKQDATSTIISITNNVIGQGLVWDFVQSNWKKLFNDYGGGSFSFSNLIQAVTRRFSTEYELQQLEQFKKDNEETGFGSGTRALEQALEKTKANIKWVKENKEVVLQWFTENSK
# UniProt Q96P48: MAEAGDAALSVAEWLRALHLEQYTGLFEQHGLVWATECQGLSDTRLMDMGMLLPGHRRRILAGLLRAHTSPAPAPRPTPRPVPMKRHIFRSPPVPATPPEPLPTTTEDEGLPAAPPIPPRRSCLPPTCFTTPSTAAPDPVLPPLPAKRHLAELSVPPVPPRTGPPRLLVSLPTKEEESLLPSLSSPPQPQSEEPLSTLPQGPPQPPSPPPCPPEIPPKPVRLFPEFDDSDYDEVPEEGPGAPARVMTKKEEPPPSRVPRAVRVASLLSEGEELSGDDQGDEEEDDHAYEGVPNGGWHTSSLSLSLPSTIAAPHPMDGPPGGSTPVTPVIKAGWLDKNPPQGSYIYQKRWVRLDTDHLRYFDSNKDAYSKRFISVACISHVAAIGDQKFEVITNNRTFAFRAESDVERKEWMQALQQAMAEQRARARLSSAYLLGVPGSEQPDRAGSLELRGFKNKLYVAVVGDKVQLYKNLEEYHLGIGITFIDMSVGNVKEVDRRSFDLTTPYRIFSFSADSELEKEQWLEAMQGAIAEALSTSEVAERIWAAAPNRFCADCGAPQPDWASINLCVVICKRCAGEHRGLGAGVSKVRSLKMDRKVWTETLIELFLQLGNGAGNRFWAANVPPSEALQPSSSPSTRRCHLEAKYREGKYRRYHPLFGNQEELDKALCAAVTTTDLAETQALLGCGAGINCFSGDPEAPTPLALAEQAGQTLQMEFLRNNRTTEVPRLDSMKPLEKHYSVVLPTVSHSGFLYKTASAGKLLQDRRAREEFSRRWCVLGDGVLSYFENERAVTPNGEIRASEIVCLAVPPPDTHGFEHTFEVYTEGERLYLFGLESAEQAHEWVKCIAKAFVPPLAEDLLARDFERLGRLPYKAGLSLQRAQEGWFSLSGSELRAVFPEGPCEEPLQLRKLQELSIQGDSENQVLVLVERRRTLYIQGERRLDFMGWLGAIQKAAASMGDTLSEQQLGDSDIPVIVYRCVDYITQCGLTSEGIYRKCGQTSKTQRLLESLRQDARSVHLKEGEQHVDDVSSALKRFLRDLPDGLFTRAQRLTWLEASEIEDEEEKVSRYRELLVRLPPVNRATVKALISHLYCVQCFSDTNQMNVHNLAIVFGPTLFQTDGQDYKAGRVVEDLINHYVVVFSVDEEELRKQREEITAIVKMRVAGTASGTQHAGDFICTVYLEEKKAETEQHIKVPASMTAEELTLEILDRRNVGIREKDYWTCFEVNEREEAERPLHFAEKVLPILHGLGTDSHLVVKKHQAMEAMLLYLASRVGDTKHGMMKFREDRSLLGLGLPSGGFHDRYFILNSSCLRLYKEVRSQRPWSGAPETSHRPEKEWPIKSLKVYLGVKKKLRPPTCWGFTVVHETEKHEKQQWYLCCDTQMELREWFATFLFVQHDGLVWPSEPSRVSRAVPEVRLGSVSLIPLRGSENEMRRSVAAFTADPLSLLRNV
# UniProt Q7Z2E3: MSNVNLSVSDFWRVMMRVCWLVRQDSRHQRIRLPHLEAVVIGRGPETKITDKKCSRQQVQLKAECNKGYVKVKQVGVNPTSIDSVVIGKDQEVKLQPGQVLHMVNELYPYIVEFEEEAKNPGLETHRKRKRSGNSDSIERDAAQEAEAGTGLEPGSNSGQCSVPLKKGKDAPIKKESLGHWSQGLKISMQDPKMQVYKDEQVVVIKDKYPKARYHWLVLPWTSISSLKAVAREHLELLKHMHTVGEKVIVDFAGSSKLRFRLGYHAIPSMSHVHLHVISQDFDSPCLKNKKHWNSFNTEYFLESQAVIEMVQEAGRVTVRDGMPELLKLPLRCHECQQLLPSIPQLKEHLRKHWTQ
# The other results are listed elsewhere or left out.
# Columns and labels:
# Experiment in all cases: log2 fold change, soluble protein after heating vs DMSO (PISA); higher = thermal stabilisation; K562 cells, 10 uM, 30 min; active = over 0.2 and 3.5 SD of the protein, either way, in both replicates (recomputed)
# saracatinib = compound: CN1CCN(CCOc2cc(OC3CCOCC3)c3c(Nc4c(Cl)ccc5c4OCO5)ncnc3c2)CC1 [saracatinib]
# How it was run: (§1)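 Soluble protein was defined as the supernatant after 21,000xg for 90 min. It came from K562 cells at 2×10^6 cells/mL given 10 μM compound for 30 min, heated in aliquots for 3 min across 48°C-58°C, pooled, and extracted in PBS with 0.5% NP-40 at 4°C, and was quantified by TMTpro 16plex LC-MS/MS with equalised channel sums. Thermal stability against control samples, from duplicates, is reported as log2 fold change.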
# sotrastaurin = compound: CN1CCN(c2nc(C3=C(c4c[nH]c5ccccc45)C(=O)NC3=O)c3ccccc3n2)CC1 [sotrastaurin]
# How it was run: as §1
# Tubastatin A = compound: CN1CCc2c(c3ccccc3n2Cc2ccc(C(=O)NO)cc2)C1 [Tubastatin A]
# How it was run: as §1
# [1] = compound: CNC(=O)C1=CC=CC=C1NC2=NC(=NC=C2Cl)NC3=C(C=C(C=C3)N4CCOCC4)OC
# How it was run: as §1
# defactinib = compound: CNC(=O)c1ccc(Nc2ncc(C(F)(F)F)c(NCc3nccnc3N(C)S(C)(=O)=O)n2)cc1 [defactinib]
# How it was run: as §1
# rucaparib = compound: CNCc1ccc(-c2[nH]c3cc(F)cc4c3c2CCNC4=O)cc1 [rucaparib]
# How it was run: as §1
# [2] = compound: CNc1nc(-c2ccc3c(N)n[nH]c3c2)cc(N2C[C@@H](C(=O)NC3CCCCC3)CC[C@H]2C)n1
# How it was run: as §1
# encorafenib = compound: COC(=O)N[C@@H](C)CNc1nccc(-c2cn(C(C)C)nc2-c2cc(Cl)cc(NS(C)(=O)=O)c2F)n1 [encorafenib]
# How it was run: as §1
# [3] = compound: COC(=O)[C@H](CCSC)NC(=O)C1=C(C=C(C=C1)NC[C@H](CS)N)C2=CC=CC=C2
# How it was run: as §1
# [4] = compound: COC1=CC=C(C=C1)CN2C=CC3=C2C=C(C=C3)C(=O)NO
# How it was run: as §1
# filanesib = compound: CON(C)C(=O)N1N=C(c2cc(F)ccc2F)S[C@@]1(CCCN)c1ccccc1 [filanesib]
# How it was run: as §1
# zotarolimus = compound: CO[C@H]1C[C@@H]2CC[C@@H](C)[C@@](O)(O2)C(=O)C(=O)N2CCCC[C@H]2C(=O)O[C@H]([C@H](C)C[C@@H]2CC[C@H](n3cnnn3)[C@H](OC)C2)CC(=O)[C@H](C)/C=C(\C)[C@@H](O)[C@@H](OC)C(=O)[C@H](C)C[C@H](C)/C=C/C=C/C=C/1C [zotarolimus]
# How it was run: as §1
# idasanutlin = compound: COc1cc(C(=O)O)ccc1NC(=O)[C@@H]1N[C@@H](CC(C)(C)C)[C@](C#N)(c2ccc(Cl)cc2F)[C@H]1c1cccc(Cl)c1F [idasanutlin]
# How it was run: as §1
# alisertib = compound: COc1cc(Nc2ncc3c(n2)-c2ccc(Cl)cc2C(c2c(F)cccc2OC)=NC3)ccc1C(=O)O [alisertib]
# How it was run: as §1
# [5] = compound: COc1cc2nc(-c3cc(F)ccc3O)nc(N[C@@H]3CNC[C@H]3C(C)(C)O)c2cc1OC
# How it was run: as §1
# gefitinib = compound: COc1cc2ncnc(Nc3ccc(F)c(Cl)c3)c2cc1OCCCN1CCOCC1 [gefitinib]
# How it was run: as §1
# [6] = compound: COc1cccc2cc(-c3nc([C@H]4CC[C@H](C(=O)O)CC4)n4ncnc(N)c34)[nH]c12
# How it was run: as §1
# lapatinib = compound: CS(=O)(=O)CCNCc1ccc(-c2ccc3ncnc(Nc4ccc(OCc5cccc(F)c5)c(Cl)c4)c3c2)o1 [lapatinib]
# How it was run: as §1
# pictilisib = compound: CS(=O)(=O)N1CCN(Cc2cc3nc(-c4cccc5[nH]ncc45)nc(N4CCOCC4)c3s2)CC1 [pictilisib]
# How it was run: as §1
# alvocidib = compound: CN1CC[C@H](c2c(O)cc(O)c3c(=O)cc(-c4ccccc4Cl)oc23)[C@H](O)C1 [alvocidib]
# How it was run: as §1
Target,log2 fold change (saracatinib),log2 fold change (sotrastaurin),log2 fold change (Tubastatin A),log2 fold change [1],log2 fold change (defactinib),log2 fold change (rucaparib),log2 fold change [2],log2 fold change (encorafenib),log2 fold change [3],log2 fold change [4],log2 fold change (filanesib),log2 fold change (zotarolimus),log2 fold change (idasanutlin),log2 fold change (alisertib),log2 fold change [5],log2 fold change (gefitinib),log2 fold change [6],log2 fold change (lapatinib),log2 fold change (pictilisib),log2 fold change (alvocidib)
ARF4 (UniProt P18085),inactive: 0.052,inactive: 0.028,inactive: 0.011,inactive: 0.028,inactive: -0.005,inactive: -0.051,inactive: -0.004,inactive: 0,inactive: -0.032,inactive: 0.007,inactive: -0.061,inactive: 0.006,inactive: -0.153,inactive: -0.023,inactive: 0.17,inactive: -0.005,inactive: 0.019,inactive: 0.037,inactive: 0.035,–
AP2B1 isoform 2 (UniProt P63010),inactive: 0.057,inactive: -0.003,inactive: 0.001,inactive: 0.022,inactive: 0.005,inactive: 0.043,inactive: -0.011,inactive: 0.027,inactive: 0.005,inactive: 0.08,inactive: 0.022,inactive: 0.036,inactive: -0.019,inactive: -0.062,inactive: 0.012,inactive: 0.01,inactive: 0.01,inactive: 0.049,inactive: 0.015,–
APH1A (UniProt Q96BI3),inactive: 0.025,inactive: 0.131,inactive: 0.097,inactive: -0.047,inactive: -0.089,inactive: 0.002,inactive: -0.01,inactive: 0,inactive: -0.111,inactive: 0.101,inactive: -0.039,inactive: -0.062,inactive: 0.005,inactive: -0.228,inactive: -0.236,inactive: 0.043,inactive: 0.059,inactive: 0.091,inactive: 0.013,–
AP2M1 (UniProt C9JTK4),inactive: -0.109,inactive: 0.055,inactive: -0.045,–,inactive: -0.053,inactive: 0.07,inactive: -0.019,inactive: -0.048,inactive: 0.193,inactive: 0.016,inactive: 0.132,inactive: -0.203,inactive: 0.224,inactive: -0.177,–,inactive: 0.005,inactive: 0.123,–,–,–
APOC3 (UniProt P02656),inactive: -0.304,inactive: 0.207,inactive: 0.018,–,–,inactive: -0.125,inactive: 0.171,inactive: -0.085,–,–,inactive: 0.241,inactive: 0.347,inactive: -0.013,inactive: -0.116,inactive: -0.135,inactive: 0.04,inactive: -0.226,inactive: -0.01,–,inactive: -0.177
APLP2 (UniProt Q06481),inactive: 0.072,inactive: 0.094,inactive: 0.014,inactive: 0.009,inactive: -0.055,inactive: -0.082,inactive: -0.051,inactive: 0.02,inactive: 0.051,inactive: 0.036,active: 0.219,inactive: 0.002,inactive: 0.058,inactive: -0.039,inactive: 0.038,inactive: 0.106,inactive: -0.04,inactive: 0.09,inactive: 0.091,–
APOBEC3G (UniProt Q9HC16),inactive: 0.046,inactive: 0.023,inactive: -0.045,inactive: -0.093,inactive: -0.097,inactive: 0.152,inactive: -0.121,inactive: -0.263,inactive: 0.038,inactive: -0.012,inactive: 0.066,–,inactive: 0.039,inactive: -0.092,inactive: 0.047,inactive: -0.074,inactive: -0.053,inactive: 0.046,–,–
ANKZF1 (UniProt Q9H8Y5),inactive: -0.146,inactive: -0.093,inactive: 0.088,inactive: 0.04,inactive: 0.123,inactive: 0.167,inactive: 0.156,inactive: 0.119,inactive: -0.274,inactive: -0.005,inactive: 0.249,inactive: 0.048,inactive: 0.235,inactive: -0.034,inactive: 0.042,inactive: -0.001,inactive: -0.022,inactive: -0.046,inactive: -0.002,–
APAF1 (UniProt O14727),inactive: -0.088,inactive: 0,–,inactive: 0.109,inactive: 0.082,inactive: 0.103,inactive: 0.032,inactive: 0.158,inactive: 0.05,inactive: -0.023,inactive: -0.066,inactive: -0.03,inactive: -0.068,inactive: 0.08,inactive: 0.279,inactive: -0.163,inactive: 0.09,inactive: 0.369,inactive: -0.04,–
AP2A1 (UniProt O95782),inactive: 0.049,inactive: 0.001,inactive: 0.001,inactive: 0.004,inactive: 0.012,inactive: 0.01,inactive: -0.047,inactive: 0.032,inactive: -0.038,inactive: 0.044,inactive: 0.045,inactive: 0.033,inactive: 0.027,inactive: -0.041,inactive: 0.008,inactive: 0.025,inactive: 0.005,inactive: 0.027,inactive: -0.042,–
AP4S1 (UniProt Q9Y587),inactive: -0.08,inactive: -0.117,–,inactive: -0.05,inactive: 0.059,inactive: 0.039,inactive: -0.072,inactive: 0.073,inactive: 0.008,inactive: -0.039,inactive: 0.029,inactive: 0.126,inactive: -0.061,inactive: -0.098,inactive: -0.002,inactive: -0.083,inactive: 0.036,inactive: -0.047,–,–
ARAF (UniProt P10398),inactive: 0.037,inactive: -0.022,inactive: -0.004,inactive: -0.084,inactive: -0.023,inactive: 0.01,inactive: 0.023,inactive: 0.177,inactive: -0.067,inactive: 0,inactive: -0.022,inactive: 0.06,inactive: 0.006,inactive: 0.076,active: -0.274,inactive: 0.076,inactive: 0.06,inactive: 0.076,inactive: -0.175,–
ARFGEF1 (UniProt Q9Y6D6),inactive: 0.037,inactive: 0.039,inactive: 0.013,inactive: 0.094,inactive: 0.007,inactive: 0.011,inactive: 0.059,inactive: 0.048,inactive: -0.038,inactive: 0.043,inactive: 0.014,inactive: 0.111,inactive: -0.092,inactive: -0.075,active: 0.246,inactive: 0.06,inactive: 0.016,inactive: 0.116,inactive: 0.006,–
ANK2 (UniProt Q01484),inactive: 0.24,inactive: 0.05,inactive: -0.122,inactive: 0.05,inactive: -0.057,inactive: -0.019,inactive: -0.095,inactive: -0.106,inactive: -0.041,inactive: -0.054,inactive: -0.052,inactive: -0.05,inactive: 0.083,inactive: -0.076,inactive: -0.04,inactive: -0.062,inactive: 0.048,inactive: -0.013,active: 0.532,–
AP2S1 (UniProt P53680),inactive: 0.012,inactive: 0.009,inactive: 0.009,inactive: 0.077,inactive: 0.038,inactive: 0.019,inactive: -0.012,inactive: 0.077,inactive: 0.025,inactive: -0.031,inactive: 0.037,inactive: 0.013,inactive: -0.033,inactive: -0.159,inactive: 0.023,inactive: 0.017,inactive: -0.061,inactive: -0.022,inactive: -0.023,–
ANKRD29 (UniProt Q8N6D5),inactive: -0.089,inactive: -0.011,inactive: 0.27,inactive: -0.02,inactive: -0.04,inactive: -0.227,inactive: 0.118,inactive: 0,inactive: -0.038,inactive: 0.339,inactive: -0.122,inactive: 0.011,inactive: -0.077,inactive: -0.044,inactive: 0.279,inactive: -0.066,inactive: -0.08,inactive: -0.126,inactive: 0.177,–
ANPEP (UniProt P15144),inactive: 0.011,inactive: 0.023,inactive: -0.145,inactive: 0.1,–,–,inactive: -0.004,–,–,inactive: -0.126,inactive: 0.265,inactive: -0.096,inactive: 0.089,inactive: 0.065,inactive: -0.096,inactive: -0.026,inactive: -0.057,inactive: 0.086,inactive: 0.038,inactive: -0.082
ARAP1 (UniProt Q96P48),inactive: -0.521,inactive: -0.064,inactive: -0.427,–,–,inactive: 0.379,inactive: 0.284,inactive: 0.161,–,inactive: 0.002,inactive: 0.078,inactive: 0.114,–,inactive: -0.037,inactive: -0.016,inactive: 0.132,inactive: -0.042,inactive: 0.38,inactive: 0,inactive: 0.026
APTX (UniProt Q7Z2E3),inactive: -0.022,inactive: -0.06,–,inactive: -0.138,–,–,inactive: -0.042,–,–,inactive: 0.038,inactive: 0.013,inactive: 0.045,inactive: -0.13,–,–,–,–,–,inactive: 0.056,inactive: 0.048
ARHGAP6 (UniProt O43182),inactive: 0.005,inactive: 0.048,inactive: 0.224,–,–,inactive: 0.338,inactive: -0.009,inactive: 0.19,–,inactive: 0.082,inactive: 0.104,–,inactive: 0.101,inactive: -0.022,–,inactive: -0.146,inactive: -0.115,–,–,–
ANXA2 (UniProt H0YMT9),inactive: -0.27,–,–,–,–,–,inactive: -0.033,–,–,inactive: -0.204,–,–,–,–,–,–,–,–,–,–

# Reprinted at random: 2 entries already listed, in no set order.
Target,log2 fold change (saracatinib),log2 fold change (sotrastaurin),log2 fold change (Tubastatin A),log2 fold change [1],log2 fold change (defactinib),log2 fold change (rucaparib),log2 fold change [2],log2 fold change (encorafenib),log2 fold change [3],log2 fold change [4],log2 fold change (filanesib),log2 fold change (zotarolimus),log2 fold change (idasanutlin),log2 fold change (alisertib),log2 fold change [5],log2 fold change (gefitinib),log2 fold change [6],log2 fold change (lapatinib),log2 fold change (pictilisib),log2 fold change (alvocidib)
ANK2 (UniProt Q01484),inactive: 0.24,inactive: 0.05,inactive: -0.122,inactive: 0.05,inactive: -0.057,inactive: -0.019,inactive: -0.095,inactive: -0.106,inactive: -0.041,inactive: -0.054,inactive: -0.052,inactive: -0.05,inactive: 0.083,inactive: -0.076,inactive: -0.04,inactive: -0.062,inactive: 0.048,inactive: -0.013,active: 0.532,–
APH1A (UniProt Q96BI3),inactive: 0.025,inactive: 0.131,inactive: 0.097,inactive: -0.047,inactive: -0.089,inactive: 0.002,inactive: -0.01,inactive: 0,inactive: -0.111,inactive: 0.101,inactive: -0.039,inactive: -0.062,inactive: 0.005,inactive: -0.228,inactive: -0.236,inactive: 0.043,inactive: 0.059,inactive: 0.091,inactive: 0.013,–
